Data published in article PMC12483374.
Results are given in words; binding and its absence hold for the method and conditions named. Binding seen in cells or lysates may run through a third protein. Some results given as binding are weak or reduced against the parent protein; the word gives no strength.

Chains of the proteins cited; added tags and fusions are not shown. Lines headed by an entry give the natural chain unless they say otherwise; changes in a name come on top.
UniProt P51149: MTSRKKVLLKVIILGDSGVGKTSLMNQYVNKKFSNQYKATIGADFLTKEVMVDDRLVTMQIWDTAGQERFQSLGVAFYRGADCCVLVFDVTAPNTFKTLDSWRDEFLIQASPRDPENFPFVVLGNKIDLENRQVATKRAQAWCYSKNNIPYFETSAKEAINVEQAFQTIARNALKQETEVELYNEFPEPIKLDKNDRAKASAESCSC

Legend:
GFP-RAB7A-T22N = GFP-RAB7A-T22N (UniProt P51149); test: co-IP; extracts of transfected HEK293T cells (10 mM Tris/Cl pH 7.4, 150 mM NaCl, 0.5 mM EDTA, 0.5% Nonidet P-40 Substitute) incubated with GFP-TRAP Magnetic Agarose for 1 h at 4°C; beads immunoblotted for GFP and endogenous SPG21; GFP alone as control
GFP-RAB7A = GFP-RAB7A (UniProt P51149); test: as above

B1: SPG21 (endogenous) (protein, UniProt Q9NZD8 1-308)
chain: MGEIKVSPDYNWFRGTVPLKKIIVDDDDSKIWSLYDAGPRSIRCPLIFLPPVSGTADVFFRQILALTGWGYRVIALQYPVYWDHLEFCDGFRKLLDHLQLDKVHLFGASLGGFLAQKFAEYTHKSPRVHSLILCNSFSDTSIFNQTWTANSFWLMPAFMLKKIVLGNFSSGPVDPMMADAIDFMVDRLESLGQSELASRLTLNCQNSYVEPHKIRDIPVTIMDVFDQSALSTEAKEEMYKLYPNARRAHLKTGGNFPYLCRSAEVNLYVQIHLLQFHGTKYAAIDPSMVSAEELEVQKGSLGISQEEQ
B1 was tested. Which binding (GFP-RAB7A-T22N) did it give?
The binding was “binds”.

And the binding (GFP-RAB7A)?
The binding was “binds”.
